In publication PMC10571763:
These are yes or no findings as the source states them, for the method shown. In cells and extracts the contact can be indirect. A yes stands for co-enrichment or nearness to the bait. Other partners may have been found.

Molecular target: T1, Tspan8 (human) (UniProt P19075)
T1 sequence: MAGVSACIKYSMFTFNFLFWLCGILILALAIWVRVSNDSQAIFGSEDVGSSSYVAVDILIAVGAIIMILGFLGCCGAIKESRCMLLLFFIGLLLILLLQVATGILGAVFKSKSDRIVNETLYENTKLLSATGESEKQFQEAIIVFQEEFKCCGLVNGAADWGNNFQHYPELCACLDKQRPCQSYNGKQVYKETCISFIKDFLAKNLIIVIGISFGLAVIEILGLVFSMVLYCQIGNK
Assay: affinity purification with mass spectrometry; Is1-tspan8 cells (express Tspan8) lysed in situ in Brij97; precleared; complexes isolated on beads coupled to mAb TS29.2 (Tspan8) or TS9 (CD9); eluted in Laemmli buffer with 1% SDS; non-reducing SDS-PAGE, trypsin digest, LTQ-Orbitrap Velos

binding: binds
B1: endothelin converting enzyme 1 (ECE1) (enzyme, UniProt P42892 1-770)
chain: MRGVWPPPVSALLSALGMSTYKRATLDEEDLVDSLSEGDAYPNGLQVNFHSPRSGQRCWAARTQVEKRLVVLVVLLAAGLVACLAALGIQYQTRSPSVCLSEACVSVTSSILSSMDPTVDPCHDFFSYACGGWIKANPVPDGHSRWGTFSNLWEHNQAIIKHLLENSTASVSEAERKAQVYYRACMNETRIEELRAKPLMELIERLGGWNITGPWAKDNFQDTLQVVTAHYRTSPFFSVYVSADSKNSNSNVIQVDQSGLGLPSRDYYLNKTENEKVLTGYLNYMVQLGKLLGGGDEEAIRPQMQQILDFETALANITIPQEKRRDEELIYHKVTAAELQTLAPAINWLPFLNTIFYPVEINESEPIVVYDKEYLEQISTLINTTDRCLLNNYMIWNLVRKTSSFLDQRFQDADEKFMEVMYGTKKTCLPRWKFCVSDTENNLGFALGPMFVKATFAEDSKSIATEIILEIKKAFEESLSTLKWMDEETRKSAKEKADAIYNMIGYPNFIMDPKELDKVFNDYTAVPDLYFENAMRFFNFSWRVTADQLRKAPNRDQWSMTPPMVNAYYSPTKNEIVFPAGILQAPFYTRSSPKALNFGGIGVVVGHELTHAFDDQGREYDKDGNLRPWWKNSSVEAFKRQTECMVEQYSNYSVNGEPVNGRHTLGENIADNGGLKAAYRAYQNWVKKNGAEHSLPTLGLTNNQLFFLGFAQVWCSVRTPESSHEGLITDPHSPSRFRVIGSLSNSKEFSEHFRCPPGSPMNPPHKCEVW
